Amino acid sequences for entries named in this document (tags omitted). A change or cut given only in a name is not applied to a line headed by its entry.
UniProt P18054: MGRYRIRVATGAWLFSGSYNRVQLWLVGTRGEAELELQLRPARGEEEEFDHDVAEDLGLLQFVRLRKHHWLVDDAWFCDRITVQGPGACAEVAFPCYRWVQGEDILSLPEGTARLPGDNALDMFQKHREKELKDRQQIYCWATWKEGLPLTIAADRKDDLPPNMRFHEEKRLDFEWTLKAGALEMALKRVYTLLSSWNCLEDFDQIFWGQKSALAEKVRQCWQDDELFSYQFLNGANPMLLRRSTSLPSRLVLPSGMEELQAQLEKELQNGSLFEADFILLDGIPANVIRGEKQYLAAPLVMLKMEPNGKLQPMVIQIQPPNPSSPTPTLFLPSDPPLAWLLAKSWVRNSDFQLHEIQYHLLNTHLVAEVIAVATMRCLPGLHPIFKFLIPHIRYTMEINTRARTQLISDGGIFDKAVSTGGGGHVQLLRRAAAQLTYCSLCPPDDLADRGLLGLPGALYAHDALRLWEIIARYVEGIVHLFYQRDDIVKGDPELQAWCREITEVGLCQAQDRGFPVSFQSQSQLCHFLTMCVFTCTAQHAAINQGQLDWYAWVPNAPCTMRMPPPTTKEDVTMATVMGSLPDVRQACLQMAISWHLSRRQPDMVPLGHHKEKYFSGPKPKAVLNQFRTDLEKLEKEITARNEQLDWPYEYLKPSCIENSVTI

In all, about 580,000 compounds went through this assay and about 6,100 (1.1%) were called active. Inconclusive means that the source gave no clear call. Such entries were picked first, then a sample of the others. Calls come from the whole dose curve; as a rule, active = well fitted inhibition curve with a large enough effect; inconclusive = small, poorly fitted or top-dose-only effect, or another doubt; inactive = no such curve, though single readings can be large or run the other way. Where the call is inconclusive, the potency comes from a doubtful curve fit.
These compounds were tested against Polyunsaturated fatty acid lipoxygenase ALOX12 (Homo sapiens) (UniProt P18054) (assay: Primary qHTS assay for inhibitors of human arachidonate 12S-lipoxygenase (ALOX12): Round 2). Details: purified 12hLO, xylenol orange hydroperoxide absorbance; series mostly up to 108 µM.
How it was run: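 Hydroperoxide product was detected by ferrous iron/xylenol orange as the 573 to 405 nm absorbance ratio. Arachidonic acid at 40 uM (final) was turned over for 30 min at room temperature by 150 nM human 12hLO, pH 7.0 Hepes buffer, after 15 min compound preincubation.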
`COc1cc(Nc2nc3c(S(=O)(=O)c4cccc(Cl)c4)nnn3c3ccsc23)cc(OC)c1` was tested, and the Potency was “inactive”.
`Cc1ccc(S(=O)(=O)N(C)c2nc3ccccc3[nH]c2=S)cc1` was tested, and the Potency was inconclusive: 44.7 µM [inhibitor, partial curve].
In the case of `CC1CCc2noc(NC(=O)c3ccc([N+](=O)[O-])cc3)c2C1` (stereo not drawn), the Potency is reported as inconclusive: 50.1 µM [inhibitor, full curve, poor fit].
For `COc1ccc(CCn2c(=N)c(C(=O)NCc3ccco3)cc3c(=O)n4ccccc4nc32)cc1`, the Potency was “inactive”.
With `Cc1ccc(NC(=O)CN2C(=O)c3ccccc3Sc3ccc(C(=O)N4CCOCC4)cc32)cc1C` the Potency was inconclusive: 31.6 µM [inhibitor, partial curve, poor fit].
With `COc1ccccc1OCCNCC(O)COc1cccc2[nH]c3ccccc3c12` (stereo not drawn) the Potency was inconclusive: 39.8 µM [inhibitor, partial curve, poor fit].
With `CN(C(=O)COC(=O)c1ccc(F)c(Cl)c1)c1ccc(F)cc1` the Potency was inconclusive: 44.7 µM [inhibitor, partial curve, poor fit].
`COc1ccc2c(c1)oc1c(SCc3nc4ccccc4[nH]3)nc(C)nc12` was tested, and the Potency was inconclusive: 126 µM [inhibitor, single point].
`COc1ccc(C2C(C#N)=C(N)Oc3cc4c(cc32)OCO4)cc1` (stereo not drawn) was tested, and the Potency was active: 12.6 µM.
In the case of `CSc1cccc(NC(=S)N2CCCN(Cc3ccccc3F)C2)c1`, the Potency is reported as inconclusive: 44.7 µM [inhibitor, partial curve].
In the case of `CN1C(=O)C(=C2CCCCCC2)SC1=S`, the Potency is reported as inconclusive: 44.7 µM [inhibitor, partial curve, poor fit].
With `O=C(NCCN1CCOCC1)c1ccc2c(c1)N(Cc1ccc(Cl)cc1)C(=O)CS2` the Potency was inconclusive: 100 µM [inhibitor, partial curve, poor fit].
With `Oc1ccccc1Cn1c(-c2ccccc2O)nc2ccccc21` the Potency was inconclusive: 56.2 µM [inhibitor, partial curve, poor fit].
With `O=c1cc(CSc2nnnn2-c2ccccc2)nc2nc[nH]n12` the Potency was inconclusive: 10 µM [inhibitor, partial curve, poor fit].
For `COc1cc(/C=C2/C(=N)N3C(c4ccccc4)=CSC3=NC2=O)ccc1OCC(=O)O`, the Potency was “inactive”.
With `CCCCNC(=O)C1COc2ccccc2O1` (stereo not drawn) the Potency was inconclusive: 31.6 µM [inhibitor, single point].
With `CC(C)C(=O)Nc1ccc(C(=O)NNC(=S)Nc2ccccc2)cc1` the Potency was “inactive”.
In the case of `CC1(c2cccnc2)N(Cc2ccccc2)C(=O)OC12CCN(C(=O)c1cnccn1)CC2` (stereo not drawn), the Potency is reported as “inactive”.
For `Cc1ccc(NC(=O)Cc2ccc3c(c2)CCCC3)cc1`, the Potency was inconclusive: 44.7 µM [inhibitor, partial curve, poor fit].
In the case of `Cc1ccc(S(=O)(=O)NC(C)CN2CCOCC2)c(Br)c1` (stereo not drawn), the Potency is reported as inconclusive: 39.8 µM [inhibitor, partial curve, poor fit].
In the case of `c1ccc2c(CNC3CCCC3)cccc2c1`, the Potency is reported as inconclusive: 7.08 µM [inhibitor, full curve, poor fit].
In the case of `COc1cc(C=C2C(=O)OC(C)(C)OC2=O)ccc1OCC(=O)Nc1ccccc1`, the Potency is reported as “inactive”.
`COCCNC(=O)CSc1nc(-c2ccc(C)cc2)[nH]c1-c1ccc(OC)cc1` was tested, and the Potency was “inactive”.
For `Cc1[nH]c2ccccc2c1CCNC(=S)NC(C)(C)C`, the Potency was inconclusive: 56.2 µM [inhibitor, partial curve, poor fit].
With `Cc1ccccc1NC(=S)NC(=O)CCc1ccccc1` the Potency was inconclusive: 28.2 µM [inhibitor, partial curve, poor fit].
In the case of `CCOc1ccccc1C(=O)Nc1cccc(-c2nnc3n2CCCC3)c1`, the Potency is reported as “inactive”.
With `C=CCNC(=O)NC(=O)CN(C)CCOc1cccc(C)c1` the Potency was inconclusive: 0.708 µM [inhibitor, single point].
With `Cc1ccccc1OCC(=O)Nc1ccccc1C(=O)OCc1cc(=O)n2nc(C3CC3)sc2n1` the Potency was inconclusive: 126 µM [inhibitor, single point].
In the case of `COc1ccc(C)cc1S(=O)(=O)Nc1ccccc1`, the Potency is reported as inconclusive: 44.7 µM [inhibitor, partial curve, poor fit].
For `CN(C)c1ccc(/C=N/N(CCO)C2=NS(=O)(=O)c3ccccc32)cc1`, the Potency was “inactive”.
For `COc1ccccc1CNc1ncnc2ccc(-c3ccc4c(c3)OCO4)cc12`, the Potency was “inactive”.
For `COc1ccc2nc(NC(=O)c3ccco3)sc2c1`, the Potency was inconclusive: 126 µM [inhibitor, single point].
`CCOc1ccc(S(=O)(=O)n2nc(C)cc2C)c2ccccc12` was tested, and the Potency was inconclusive: 44.7 µM [inhibitor, partial curve, poor fit].
With `C=CCNC(=O)COC(=O)COc1ccc(Cl)cc1` the Potency was inconclusive: 112 µM [inhibitor, single point].
`O=C(O)c1cc(S(=O)(=O)O)ccc1O` was tested, and the Potency was inconclusive: 56.2 µM [inhibitor, partial curve, poor fit].
`O=C(CSc1ncccn1)c1ccccc1Br` was tested, and the Potency was inconclusive: 31.6 µM [inhibitor, single point].
`C[C@@H]1CN([C@H](C)CO)C(=O)c2cc(C#CC3CC3)cnc2O[C@H]1CN(C)S(C)(=O)=O` was tested, and the Potency was inconclusive: 79.4 µM [inhibitor, single point].
With `COc1ccc(C(=O)N(Cc2nc3nc(C)cc(=O)n3[nH]2)c2ccc(C)cc2)cc1` the Potency was inconclusive: 10 µM [inhibitor, full curve, poor fit].
For `COCC(=O)N[C@@H]1CN(Cc2ccc(F)c(OC)c2)C[C@H]1CO`, the Potency was inconclusive: 5.01 µM [inhibitor, full curve].
In the case of `O=C(Nc1cccc(F)c1)c1cnc2c(c1)N(C(=O)Cc1cccc(C(F)(F)F)c1)CCC2`, the Potency is reported as “inactive”.
With `Cc1ccc(C2=NC3(CCN(C(=O)COc4cccc(C)c4)CC3)ON2)cc1` the Potency was active: 89.1 µM.
With `Oc1cc2c(cc1CN1CCN(c3ncccn3)CC1)OCO2` the Potency was inconclusive: 39.8 µM [inhibitor, partial curve, poor fit].
In the case of `CC(C)CC(CNC(=O)Cc1n[nH]c(=O)c2ccccc12)N1CCOCC1` (stereo not drawn), the Potency is reported as “inactive”.
Potency is the fitted concentration of half-maximal effect.
